Patent publication US20260015581A1, “METHODS FOR THE PRODUCTION OF RETINAL CELLS” (MIAMI UNIVERSITY, priority 2018, published 2026)
At least one structure is not confirmed: it was looked up by name or label, or the drawing left a doubt. Some entries repeat one wording, which the source may state once for all of them.

Tested on: PGP1-derived RPE
Assay: Small molecule screen for reprogramming of PGP1-derived RPE to neural retina (induction of fluorescent reporter expression)
Details: Selleck Chemicals Epigenetic Compounds Library L1900; 40 μM

Row | SMILES | induction of Cerulean expression in PGP1-derived RPE
1 | CCN(CCCOc1ccc2c(Nc3cc(CC(=O)Nc4cccc(F)c4)n[nH]3)ncnc2c1)CCOP(=O)(O)O [Barasertib] | showed evidence of inducing Cerulean expression
2 | c1cc(-c2cnn3cc(-c4ccc(OCCN5CCCCC5)cc4)cnc23)ccn1 [Dorsomorphin] | showed evidence of inducing Cerulean expression
